Measured values from publication PMC6336777.
These are yes or no findings as the source states them, for the method shown. Binding seen in cells or lysates may run through a third protein. Some entries that bind do so weakly or less than the wild type.

Protein sequences, listed by entry. Tags and fused reporters are not part of them. Residues count along the entry.
UniProt Q9DCC8: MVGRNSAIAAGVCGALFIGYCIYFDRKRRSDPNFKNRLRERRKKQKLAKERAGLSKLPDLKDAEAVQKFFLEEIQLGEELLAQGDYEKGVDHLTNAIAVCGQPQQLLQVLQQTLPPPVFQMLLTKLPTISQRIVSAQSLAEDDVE
UniProt Q9EQY0, residues 21-977: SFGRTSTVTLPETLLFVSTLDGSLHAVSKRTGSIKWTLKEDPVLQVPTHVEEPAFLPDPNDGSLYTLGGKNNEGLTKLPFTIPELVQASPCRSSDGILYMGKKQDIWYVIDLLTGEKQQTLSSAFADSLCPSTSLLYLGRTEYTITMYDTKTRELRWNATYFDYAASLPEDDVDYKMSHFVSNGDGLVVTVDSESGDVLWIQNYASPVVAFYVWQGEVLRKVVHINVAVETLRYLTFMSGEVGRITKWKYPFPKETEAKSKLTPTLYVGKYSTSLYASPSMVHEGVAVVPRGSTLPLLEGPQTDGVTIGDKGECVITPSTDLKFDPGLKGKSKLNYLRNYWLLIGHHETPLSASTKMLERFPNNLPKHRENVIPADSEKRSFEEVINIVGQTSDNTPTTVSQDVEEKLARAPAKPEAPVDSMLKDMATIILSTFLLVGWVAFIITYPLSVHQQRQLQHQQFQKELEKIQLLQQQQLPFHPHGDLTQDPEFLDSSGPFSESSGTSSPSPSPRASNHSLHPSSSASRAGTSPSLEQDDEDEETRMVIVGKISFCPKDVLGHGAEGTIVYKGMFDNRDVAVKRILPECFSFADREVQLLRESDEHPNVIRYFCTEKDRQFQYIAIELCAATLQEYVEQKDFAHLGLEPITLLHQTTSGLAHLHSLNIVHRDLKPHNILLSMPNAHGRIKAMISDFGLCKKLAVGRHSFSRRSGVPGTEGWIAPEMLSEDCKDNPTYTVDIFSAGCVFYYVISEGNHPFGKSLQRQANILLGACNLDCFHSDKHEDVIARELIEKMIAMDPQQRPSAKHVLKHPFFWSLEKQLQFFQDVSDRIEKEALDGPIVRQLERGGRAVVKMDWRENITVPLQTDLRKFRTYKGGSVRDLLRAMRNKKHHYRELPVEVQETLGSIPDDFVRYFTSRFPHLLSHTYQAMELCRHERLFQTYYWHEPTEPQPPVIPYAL
UniProt Q8CHK4: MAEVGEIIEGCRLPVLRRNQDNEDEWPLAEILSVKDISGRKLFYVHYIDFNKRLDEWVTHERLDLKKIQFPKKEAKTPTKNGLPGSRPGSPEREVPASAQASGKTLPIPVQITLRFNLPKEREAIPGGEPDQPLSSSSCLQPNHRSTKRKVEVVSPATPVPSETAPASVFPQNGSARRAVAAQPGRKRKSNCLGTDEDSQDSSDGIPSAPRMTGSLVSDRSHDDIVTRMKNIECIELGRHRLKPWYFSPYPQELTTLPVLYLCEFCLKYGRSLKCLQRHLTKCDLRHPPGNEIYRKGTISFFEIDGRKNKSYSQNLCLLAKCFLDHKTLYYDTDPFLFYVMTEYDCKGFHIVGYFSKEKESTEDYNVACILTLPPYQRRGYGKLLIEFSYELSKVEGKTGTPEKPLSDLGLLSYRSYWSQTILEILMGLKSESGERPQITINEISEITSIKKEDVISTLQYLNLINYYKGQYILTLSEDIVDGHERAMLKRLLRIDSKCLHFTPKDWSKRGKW

T1: Myristoylated Alanine-Rich C Kinase Substrate (MARCKS) (mouse (endogenous in embryos and C17.2 cells)) (UniProt P26645)
T1 sequence: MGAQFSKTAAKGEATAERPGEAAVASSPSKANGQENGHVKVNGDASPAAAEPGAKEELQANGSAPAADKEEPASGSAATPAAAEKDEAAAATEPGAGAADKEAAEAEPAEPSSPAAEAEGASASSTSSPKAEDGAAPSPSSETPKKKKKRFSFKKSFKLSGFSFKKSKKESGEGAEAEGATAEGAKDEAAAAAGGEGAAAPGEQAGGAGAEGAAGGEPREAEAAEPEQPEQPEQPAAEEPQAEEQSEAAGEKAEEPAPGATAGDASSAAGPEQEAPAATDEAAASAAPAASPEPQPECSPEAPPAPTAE


Legend:
[1] = molecular target: T1, Myristoylated Alanine-Rich C Kinase Substrate (MARCKS) (mouse (endogenous in embryos and C17.2 cells)); assay: co-IP; IP with rabbit anti-MARCKS antibody and Protein A/G magnetic beads from lysate of five to six embryos pooled per litter, nondiabetic or diabetic dams; immunoblot
[2] = molecular target: T1, Myristoylated Alanine-Rich C Kinase Substrate (MARCKS) (mouse (endogenous in embryos and C17.2 cells)); assay: co-IP; IP with rabbit anti-MARCKS antibody and Protein A/G magnetic beads from C17.2 cell lysate, normal or high glucose; immunoblot
[3] = molecular target: Tom20 (mouse (endogenous in embryos and C17.2 cells)) (UniProt Q9DCC8); assay: proximity ligation; sections of the embryonic neuroepithelium; embryos from nondiabetic or diabetic dams, wild type or MARCKS-PD transgenic; red PLA dots per cell
[4] = molecular target: IRE1α (mouse (endogenous in embryos and C17.2 cells)) (UniProt Q9EQY0); assay: as above
[5] = molecular target: Tom20 (mouse (endogenous in embryos and C17.2 cells)) (UniProt Q9DCC8); assay: proximity ligation; cultured C17.2 cells in normal glucose (5 mM) or high glucose (25 mM), with or without MARCKS-PD; red PLA dots per cell
[6] = molecular target: IRE1α (mouse (endogenous in embryos and C17.2 cells)) (UniProt Q9EQY0); assay: as above

| binding [1] | binding [2] | binding [3] | binding [4] | binding [5] | binding [6] | Molecule |
| --- | --- | --- | --- | --- | --- | --- |
| binds | binds | – | – | – | – | Tat-interactive protein 60 (Tip60) (from UniProt Q8CHK4 1-513) (enzyme) |
| – | – | binds | binds | binds | binds | Myristoylated Alanine-Rich C Kinase Substrate (MARCKS) (protein, UniProt P26645 1-309) MGAQFSKTAAKGEATAERPGEAAVASSPSKANGQENGHVKVNGDASPAAAEPGAKEELQANGSAPAADKEEPASGSAATPAAAEKDEAAAATEPGAGAADKEAAEAEPAEPSSPAAEAEGASASSTSSPKAEDGAAPSPSSETPKKKKKRFSFKKSFKLSGFSFKKSKKESGEGAEAEGATAEGAKDEAAAAAGGEGAAAPGEQAGGAGAEGAAGGEPREAEAAEPEQPEQPEQPAAEEPQAEEQSEAAGEKAEEPAPGATAGDASSAAGPEQEAPAATDEAAASAAPAASPEPQPECSPEAPPAPTAE |
